Binding data for 2 substances are collected here from PMC7555290.

Amino acid sequences for entries named in this document (tags omitted).
UniProt Q07820: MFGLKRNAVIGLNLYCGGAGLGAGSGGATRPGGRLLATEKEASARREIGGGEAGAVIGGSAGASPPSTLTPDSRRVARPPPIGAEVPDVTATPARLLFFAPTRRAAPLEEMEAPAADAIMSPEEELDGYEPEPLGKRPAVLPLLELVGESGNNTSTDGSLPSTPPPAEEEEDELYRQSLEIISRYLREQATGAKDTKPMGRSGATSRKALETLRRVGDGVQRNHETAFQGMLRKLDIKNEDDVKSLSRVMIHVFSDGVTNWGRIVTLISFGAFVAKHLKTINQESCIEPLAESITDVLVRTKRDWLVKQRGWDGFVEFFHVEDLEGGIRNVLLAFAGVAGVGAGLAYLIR
UniProt Q12834: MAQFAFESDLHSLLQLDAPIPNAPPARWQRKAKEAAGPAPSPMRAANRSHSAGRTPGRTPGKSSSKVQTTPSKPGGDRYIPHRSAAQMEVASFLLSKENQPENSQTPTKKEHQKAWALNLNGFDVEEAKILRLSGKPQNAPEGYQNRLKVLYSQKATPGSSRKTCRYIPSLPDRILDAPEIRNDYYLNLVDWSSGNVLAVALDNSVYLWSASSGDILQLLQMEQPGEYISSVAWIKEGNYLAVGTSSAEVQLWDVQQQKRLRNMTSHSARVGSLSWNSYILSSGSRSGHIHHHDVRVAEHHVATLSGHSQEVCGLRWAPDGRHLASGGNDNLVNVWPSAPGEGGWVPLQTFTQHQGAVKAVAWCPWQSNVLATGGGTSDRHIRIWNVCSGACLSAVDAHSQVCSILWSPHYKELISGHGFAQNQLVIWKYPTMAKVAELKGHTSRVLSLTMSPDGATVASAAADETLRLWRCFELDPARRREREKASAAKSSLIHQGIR

Assay [1] addresses Flag-Mcl-1 (UniProt Q07820). In words: pull-down; purified Flag-Mcl-1 immobilized on anti-Flag M2 beads incubated with purified GST-CDC20; bead-bound proteins blotted with anti-CDC20 antibody; both purified.
For assay [2], the target named is Mcl-1, endogenous (human (endogenous in HCT116)) (UniProt Q07820). The experiment in a line: co-IP; endogenous proteins in HCT116 total cell lysate (RIPA lysis buffer with protease inhibitors); primary antibody 12 h at 4 °C, Protein G Sepharose; Western blot. (A western blot detects proteins with antibodies after separation by electrophoresis.)

These are yes or no findings as the source states them, for the method shown. For some assays here: In cells and extracts the contact can be indirect. Some results given as binding are weak or reduced against the parent protein; the word gives no strength.

Consider GST-CDC20 (from UniProt Q12834 1-499), for which the binding result in assay [1] was “binds”.

On to “Cell division cycle 20 (CDC20), endogenous (from UniProt Q12834 1-499)”, for which, in assay [2], the binding result is listed as “binds”.
